Values from PubChem BioAssay AID1053209 (Peter MacCallum Cancer Centre, 2014)

- Screen: 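Gene losses that combine with doxorubicin to kill mouse bone cancer cells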 (follow-up of hits)
- System: mouse primary osteosarcoma cells
- Knock-down reagent: single siRNA against mouse genes, 25 nM (text also states 40 nM)
- Duration: about 120 h (48 h before drug, then 72 h with drug)
- Conditions: doxorubicin 100 nM (about IC30-40), added 48 h after transfection, for 72 h
- Read-out: 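Viability measured by ATP luminescence with and without doxorubicin, each replicate scaled to non-targeting siRNA NT1, averaged over two replicates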
- Reading the numbers: viability with doxorubicin, vs NT1: higher = more viable cells under doxorubicin; viability ratio, doxorubicin over no drug: higher = less sensitisation to doxorubicin; viability without drug, vs NT1: higher = more viable cells without drug
- Active means: 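Active when doxorubicin viability is at most 0.7 of NT1 and drug-free viability lies between 0.7 and 1.1, class LC dox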
Here is a random part of about 1,580 deposited reagents. 207 of all reagents (13%) count as active. 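Rows are single siRNAs; four siRNAs per gene were tested, a gene counting as confirmed only when at least two agree.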 Entries without a mark were called inactive. Reagent sequences are not shown.

| target gene | PubChem SID | combined effect class | viability with doxorubicin, vs NT1 | viability ratio, doxorubicin over no drug | viability without drug, vs NT1 |
| --- | --- | --- | --- | --- | --- |
| Pno1 (GeneID 66249) | SID152271538 | low viability only without drug | 0.92 | 1.35 | 0.68 |
| Pno1 (GeneID 66249) | SID152284382 | low viability only with doxorubicin; normal without drug (active) | 0.6 | 0.81 | 0.74 |
| Pno1 (GeneID 66249) | SID152287267 | low viability with and without drug | 0.6 | 0.9 | 0.67 |
| Pno1 (GeneID 66249) | SID152340243 | low viability with and without drug | 0.65 | 1.1 | 0.59 |
| Eif3k (GeneID 73830) | SID152272903 | high viability only with doxorubicin | 1.1 | 1.05 | 1.05 |
| Eif3k (GeneID 73830) | SID152307576 | low viability only with doxorubicin; normal without drug (active) | 0.65 | 0.83 | 0.78 |
| Eif3k (GeneID 73830) | SID152311561 | low viability only with doxorubicin; normal without drug (active) | 0.37 | 0.46 | 0.8 |
| Eif3k (GeneID 73830) | SID152320341 | normal viability with and without drug | 1 | 1.01 | 0.99 |
| Dtl (GeneID 76843) | SID152272492 | normal viability with and without drug | 0.74 | 0.9 | 0.82 |
| Dtl (GeneID 76843) | SID152293543 | low viability with and without drug | 0.7 | 1.04 | 0.67 |
| Dtl (GeneID 76843) | SID152298781 | normal viability with and without drug | 0.74 | 0.92 | 0.8 |
| Dtl (GeneID 76843) | SID152337196 | high viability only without drug | 0.95 | 0.85 | 1.12 |
| Rpa2 (GeneID 19891) | SID152275244 | low viability only with doxorubicin; normal without drug (active) | 0.6 | 0.64 | 0.94 |
| Rpa2 (GeneID 19891) | SID152320072 | low viability only with doxorubicin; normal without drug (active) | 0.34 | 0.48 | 0.71 |
| Rpa2 (GeneID 19891) | SID152332198 | normal viability with and without drug | 0.77 | 0.83 | 0.93 |
| Rpa2 (GeneID 19891) | SID193126353 | low viability with and without drug | 0.38 | 0.54 | 0.7 |
| Fam13c (GeneID 71721) | SID152259437 | normal viability with and without drug | 0.94 | 0.9 | 1.04 |
| Fam13c (GeneID 71721) | SID152294499 | high viability with and without drug | 1.12 | 1 | 1.12 |
| Fam13c (GeneID 71721) | SID152300087 | normal viability with and without drug | 0.91 | 0.98 | 0.93 |
| Fam13c (GeneID 71721) | SID152301921 | normal viability with and without drug | 1.03 | 0.99 | 1.04 |

Sorted by “viability with doxorubicin, vs NT1” (descending): some entries from above
| target gene | PubChem SID | combined effect class | viability with doxorubicin, vs NT1 | viability ratio, doxorubicin over no drug | viability without drug, vs NT1 |
| --- | --- | --- | --- | --- | --- |
| Eif3k (GeneID 73830) | SID152272903 | high viability only with doxorubicin | 1.1 | 1.05 | 1.05 |
| Pno1 (GeneID 66249) | SID152340243 | low viability with and without drug | 0.65 | 1.1 | 0.59 |
| Pno1 (GeneID 66249) | SID152287267 | low viability with and without drug | 0.6 | 0.9 | 0.67 |

Next reagents follow:
| target gene | PubChem SID | combined effect class | viability with doxorubicin, vs NT1 | viability ratio, doxorubicin over no drug | viability without drug, vs NT1 |
| --- | --- | --- | --- | --- | --- |
| Ube2i (GeneID 22196) | SID152260415 | normal viability with and without drug | 0.73 | 0.84 | 0.87 |
| Ube2i (GeneID 22196) | SID152278043 | low viability with and without drug | 0.41 | 0.71 | 0.58 |
| Ube2i (GeneID 22196) | SID152317053 | low viability only with doxorubicin; normal without drug (active) | 0.6 | 0.7 | 0.86 |
| Ube2i (GeneID 22196) | SID152327476 | low viability with and without drug | 0.46 | 0.72 | 0.64 |
| Plk1 (GeneID 18817) | SID152259497 | low viability only with doxorubicin; normal without drug (active) | 0.51 | 0.71 | 0.72 |
| Plk1 (GeneID 18817) | SID152268770 | normal viability with and without drug | 0.72 | 0.89 | 0.81 |
| Plk1 (GeneID 18817) | SID152288930 | low viability with and without drug | 0.7 | 1 | 0.7 |
| Plk1 (GeneID 18817) | SID152302146 | low viability with and without drug | 0.57 | 0.83 | 0.69 |
| Tnfrsf13b (GeneID 57916) | SID152274475 | normal viability with and without drug | 0.92 | 0.86 | 1.07 |
| Tnfrsf13b (GeneID 57916) | SID152275363 | normal viability with and without drug | 0.91 | 1.05 | 0.87 |
| Tnfrsf13b (GeneID 57916) | SID152283063 | normal viability with and without drug | 0.97 | 0.99 | 0.98 |
| Tnfrsf13b (GeneID 57916) | SID152319431 | normal viability with and without drug | 0.93 | 0.9 | 1.03 |
| U2af1 (GeneID 108121) | SID152262558 | low viability with and without drug | 0.54 | 0.78 | 0.69 |
| U2af1 (GeneID 108121) | SID152284847 | low viability only with doxorubicin; normal without drug (active) | 0.47 | 0.65 | 0.72 |
| U2af1 (GeneID 108121) | SID152308341 | low viability only with doxorubicin; normal without drug (active) | 0.4 | 0.49 | 0.82 |
| U2af1 (GeneID 108121) | SID152341208 | low viability only with doxorubicin; normal without drug (active) | 0.45 | 0.56 | 0.81 |
| Rpl36a (GeneID 19982) | SID152282047 | normal viability with and without drug | 1 | 1.3 | 0.77 |
| Rpl36a (GeneID 19982) | SID152282371 | low viability with and without drug | 0.43 | 0.61 | 0.7 |
| Rpl36a (GeneID 19982) | SID152295621 | normal viability with and without drug | 0.88 | 0.96 | 0.92 |
| Rpl36a (GeneID 19982) | SID152324935 | normal viability with and without drug | 1.07 | 1.06 | 1.01 |
| Sf3b4 (GeneID 107701) | SID152287731 | normal viability with and without drug | 0.86 | 0.9 | 0.96 |
| Sf3b4 (GeneID 107701) | SID152295158 | normal viability with and without drug | 0.84 | 0.91 | 0.92 |
| Sf3b4 (GeneID 107701) | SID152299305 | normal viability with and without drug | 1.02 | 0.96 | 1.06 |
| Sf3b4 (GeneID 107701) | SID152331206 | low viability with and without drug | 0.19 | 0.35 | 0.55 |
| Gsdmc (GeneID 83492) | SID152263929 | normal viability with and without drug | 0.94 | 0.88 | 1.07 |
| Gsdmc (GeneID 83492) | SID152296917 | normal viability with and without drug | 0.79 | 0.81 | 0.97 |
| Gsdmc (GeneID 83492) | SID152301357 | normal viability with and without drug | 1.02 | 0.94 | 1.08 |
| Gsdmc (GeneID 83492) | SID152303185 | high viability only with doxorubicin | 1.15 | 1.08 | 1.06 |
| Chmp2a (GeneID 68953) | SID152286667 | normal viability with and without drug | 1.06 | 1.28 | 0.83 |
| Chmp2a (GeneID 68953) | SID152299326 | low viability only with doxorubicin; normal without drug (active) | 0.53 | 0.62 | 0.86 |
| Chmp2a (GeneID 68953) | SID152303431 | normal viability with and without drug | 0.88 | 0.89 | 0.99 |
| Chmp2a (GeneID 68953) | SID152324275 | low viability only with doxorubicin; normal without drug (active) | 0.55 | 0.57 | 0.96 |
| Hrk (GeneID 12123) | SID152274841 | normal viability with and without drug | 1.06 | 1.01 | 1.05 |
| Hrk (GeneID 12123) | SID152281900 | high viability only with doxorubicin | 1.12 | 1.1 | 1.02 |
| Hrk (GeneID 12123) | SID152298038 | normal viability with and without drug | 0.88 | 0.9 | 0.98 |
| Hrk (GeneID 12123) | SID152335211 | normal viability with and without drug | 0.99 | 1 | 0.99 |
| Klhdc4 (GeneID 234825) | SID152283505 | normal viability with and without drug | 0.72 | 0.75 | 0.96 |
| Klhdc4 (GeneID 234825) | SID152319191 | normal viability with and without drug | 0.86 | 0.93 | 0.92 |
| Klhdc4 (GeneID 234825) | SID152326392 | normal viability with and without drug | 0.9 | 0.97 | 0.93 |
| Klhdc4 (GeneID 234825) | SID152343061 | high viability only with doxorubicin | 1.13 | 1.13 | 1 |
